The list shows a part of the results.
Legend:
Assay in all cases: glycan array binding signal (z-score within array); higher = stronger binding
Conditions in all cases: glycan notation: IUPAC condensed, linker removed
[1] = molecular target: Neu5Ac(a2-6)GlcNAc(b1-4)GlcNAc(b1-4)GlcNAc
Outline: (§1)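 Glycan array data came from 3228 arrays in the Consortium for Functional Glycomics database, and only arrays with an available protein sequence were kept. Glycan names were put into IUPAC-condensed notation, and columns mapping to the same glycan were averaged. The binding signal is a within-array Z-score, averaged across arrays of one protein sequence run at different concentrations or buffers and across linkers. A negative Z-score can be read as non-binding.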

Neu5Ac(a2-8)Neu5Ac = molecular target: Neu5Ac(a2-8)Neu5Ac
Outline: as §1

[2] = molecular target: Neu5Ac(a2-8)Neu5Ac(a2-3)Gal(b1-3)GalNAc(b1-4)[Neu5Ac(a2-3)]Gal(b1-4)Glc
Outline: as §1

[3] = molecular target: Neu5Ac(a2-8)Neu5Ac(a2-3)Gal(b1-3)GalNAc(b1-4)[Neu5Ac(a2-8)Neu5Ac(a2-3)]Gal(b1-4)Glc
Outline: as §1

[4] = molecular target: Neu5Ac(a2-8)Neu5Ac(a2-3)Gal(b1-4)Glc
Outline: as §1

[5] = molecular target: Neu5Ac(a2-8)Neu5Ac(a2-3)Gal(b1-4)GlcNAc
Outline: as §1

[6] = molecular target: Neu5Ac(a2-8)Neu5Ac(a2-3)[Gal(b1-3)GalNAc(b1-4)]Gal(b1-4)Glc
Outline: as §1

[7] = molecular target: Neu5Ac(a2-8)Neu5Ac(a2-3)[GalNAc(b1-4)]Gal(b1-4)Glc
Outline: as §1

[8] = molecular target: Neu5Ac(a2-8)Neu5Ac(a2-8)Neu5Ac
Outline: as §1

[9] = molecular target: Neu5Ac(a2-8)Neu5Ac(a2-8)Neu5Ac(a2-3)Gal(b1-4)Glc
Outline: as §1

[10] = molecular target: Neu5Ac(a2-8)Neu5Ac(a2-8)Neu5Ac(a2-3)[Gal(b1-3)GalNAc(b1-4)]Gal(b1-4)Glc
Outline: as §1

[11] = molecular target: Neu5Ac(a2-8)Neu5Ac(a2-8)Neu5Ac(a2-3)[GalNAc(b1-4)]Gal(b1-4)Glc
Outline: as §1

[12] = molecular target: Neu5Ac(a2-8)Neu5Ac(a2-8)Neu5Ac(a2-8)Neu5Ac(a2-3)[GalNAc(b1-4)]Gal(b1-4)Glc
Outline: as §1

[13] = molecular target: Neu5Ac(a2-8)Neu5Gc(a2-3)Gal(b1-4)GlcNAc
Outline: as §1

[14] = molecular target: Neu5Ac(b2-6)Gal(b1-4)GlcNAc
Outline: as §1

Neu5Ac(b2-6)GalNAc = molecular target: Neu5Ac(b2-6)GalNAc
Outline: as §1

[15] = molecular target: Neu5Ac9Ac(a2-3)Gal(b1-3)GlcNAc
Outline: as §1

[16] = molecular target: Neu5Ac9Ac(a2-3)Gal(b1-4)GlcNAc
Outline: as §1

[17] = molecular target: Neu5Ac9Ac(a2-6)Gal(b1-4)GlcNAc
Outline: as §1

[18] = molecular target: Neu5Gc(a2-3)Gal(b1-3)GlcNAc
Outline: as §1

[19] = molecular target: Neu5Gc(a2-3)Gal(b1-3)[Fuc(a1-4)]GlcNAc
Outline: as §1

Neu5Gc(a2-3)Gal(b1-4)Glc = molecular target: Neu5Gc(a2-3)Gal(b1-4)Glc
Outline: as §1

[20] = molecular target: Neu5Gc(a2-3)Gal(b1-4)GlcNAc
Outline: as §1

[21] = molecular target: Neu5Gc(a2-3)Gal(b1-4)GlcNAc(b1-3)Gal(b1-4)GlcNAc(b1-2)Man(a1-3)[Neu5Gc(a2-3)Gal(b1-4)GlcNAc(b1-3)Gal(b1-4)GlcNAc(b1-2)Man(a1-6)]Man(b1-4)GlcNAc(b1-4)GlcNAc
Outline: as §1

[22] = molecular target: Neu5Gc(a2-3)Gal(b1-4)[Fuc(a1-3)]GlcNAc
Outline: as §1

[23] = molecular target: Neu5Gc(a2-6)Gal(b1-4)GlcNAc
Outline: as §1

Neu5Gc(a2-6)GalNAc = molecular target: Neu5Gc(a2-6)GalNAc
Outline: as §1

[24] = molecular target: Neu5Gc(a2-8)Neu5Ac(a2-3)Gal(b1-4)GlcNAc
Outline: as §1

[25] = molecular target: Neu5Gc(a2-8)Neu5Gc(a2-3)Gal(b1-4)GlcNAc
Outline: as §1

[26] = molecular target: Neu5Gc(a2-8)Neu5Gc(a2-3)Gal(b1-4)GlcNAc(b1-3)Gal(b1-4)GlcNAc
Outline: as §1

[27] = molecular target: Neu5Gc(a2-8)Neu5Gc(a2-6)Gal(b1-4)GlcNAc
Outline: as §1

[28] = molecular target: Neu5Gc(b2-6)Gal(b1-4)GlcNAc
Outline: as §1

B1: CBP21 (Serratia marcescens), O83009 (protein)
chain: MNKTSRTLLSLGLLSAAMFGVSQQANAHGYVESPASRAYQCKLQLNTQCGSVQYEPQSVEGLKGFPQAGPADGHIASADKSTFFELDQQTPTRWNKLNLKTGPNSFTWKLTARHSTTSWRYFITKPNWDASQPLTRASFDLTPFCQFNDGGAIPAAQVTHQCNIPADRSGSHVILAVWDIADTANAFYQAIDVNLSK
Q: Which “glycan array binding signal (z-score)” value [1] does the source give for B1 here?
A: The value was -0.4.

Q: What about the “glycan array binding signal (z-score)” value (Neu5Ac(a2-8)Neu5Ac) of the same binder?
A: Its value is 1.8.

Q: And the “glycan array binding signal (z-score)” value [2]?
A: The value was 4.

Q: What about the “glycan array binding signal (z-score)” value [3] of the same binder?
A: The value was 0.155.

Q: What about the “glycan array binding signal (z-score)” value [4] of the same binder?
A: The value was -0.726.

Q: And the “glycan array binding signal (z-score)” value [5]?
A: The value was -1.45.

Q: What about the “glycan array binding signal (z-score)” value [6] of the same binder?
A: The value was 1.77.

Q: And the “glycan array binding signal (z-score)” value [7]?
A: Its value is -1.38.

Q: What about the “glycan array binding signal (z-score)” value [8] of the same binder?
A: Its value is 0.577.

Q: And the “glycan array binding signal (z-score)” value [9]?
A: Its value is -0.048.

Q: And the “glycan array binding signal (z-score)” value [10]?
A: The value was 0.071.

Q: And the “glycan array binding signal (z-score)” value [11]?
A: Its value is -1.01.

Q: And the “glycan array binding signal (z-score)” value [12]?
A: The value was -1.29.

Q: And the “glycan array binding signal (z-score)” value [13]?
A: The value was -1.4.

Q: What about the “glycan array binding signal (z-score)” value [14] of the same binder?
A: Its value is -1.25.

Q: And the “glycan array binding signal (z-score)” value (Neu5Ac(b2-6)GalNAc)?
A: Its value is 0.2.

Q: What about the “glycan array binding signal (z-score)” value [15] of the same binder?
A: The value was -0.399.

Q: What about the “glycan array binding signal (z-score)” value [16] of the same binder?
A: The value was 0.285.

Q: What about the “glycan array binding signal (z-score)” value [17] of the same binder?
A: Its value is -0.459.

Q: And the “glycan array binding signal (z-score)” value [18]?
A: The value was -0.236.

Q: And the “glycan array binding signal (z-score)” value [19]?
A: Its value is 0.155.

Q: And the “glycan array binding signal (z-score)” value (Neu5Gc(a2-3)Gal(b1-4)Glc)?
A: Its value is -0.615.

Q: And the “glycan array binding signal (z-score)” value [20]?
A: Its value is -1.

Q: What about the “glycan array binding signal (z-score)” value [21] of the same binder?
A: Its value is 0.087.

Q: And the “glycan array binding signal (z-score)” value [22]?
A: Its value is -0.274.

Q: And the “glycan array binding signal (z-score)” value [23]?
A: The value was 0.755.

Q: What about the “glycan array binding signal (z-score)” value (Neu5Gc(a2-6)GalNAc) of the same binder?
A: The value was -0.58.

Q: And the “glycan array binding signal (z-score)” value [24]?
A: Its value is -0.645.

Q: And the “glycan array binding signal (z-score)” value [25]?
A: Its value is -0.788.

Q: What about the “glycan array binding signal (z-score)” value [26] of the same binder?
A: The value was 0.62.

Q: What about the “glycan array binding signal (z-score)” value [27] of the same binder?
A: The value was 0.37.

Q: What about the “glycan array binding signal (z-score)” value [28] of the same binder?
A: Its value is 1.14.

Source: the supplement of paper PMC8728848
